Taken from: PubChem BioAssay AID1259424 (University of Nebraska Medical Center, 2018)

- Aim: 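Rank knockdowns across the genome by resemblance to the KSR1 depletion profile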 (primary screen)
- Cells: human HCT116 colon cancer cells
- Knock-down reagent: siRNA pool against human genes, 50 nM
- Read-out: 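Log2 levels of six mRNAs (branched-DNA multiplex), adjusted by two reference genes and the non-targeting median, then scored against the average KSR1 knockdown pattern as Pearson r and euclidean distance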
- Scale: mean correlation with KSR1 profile and KSR1 correlation: higher = expression change more like KSR1 knockdown; mean distance from KSR1 profile: higher = expression change less like KSR1 knockdown
The whole screen tested about 14,000 reagents; below is a random part of them. 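Higher correlation or smaller distance means closer resemblance to KSR1 loss; control wells, including KSR1 knockdowns, recur on many plates.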 Reagent sequences are not shown. Not given: the time to read-out.

| target gene | mean correlation with KSR1 profile | mean distance from KSR1 profile | KSR1 correlation, replicate 1 | KSR1 correlation, replicate 2 | KSR1 correlation, replicate 3 |
| --- | --- | --- | --- | --- | --- |
| METAP2 (methionyl aminopeptidase 2) | -0.554 | 2.11 | -0.451 | -0.679 | -0.247 |
| SEC14L3 (SEC14 like lipid binding 3) | -0.212 | 4.04 | -0.196 | -0.334 | -0.187 |
| KLK5 (kallikrein related peptidase 5) | -0.567 | 3.09 | -0.353 | -0.581 | -0.558 |
| CHIC2 (cysteine rich hydrophobic domain 2) | -0.211 | 1.65 | -0.187 | -0.301 | -0.255 |
| MYBL2 (MYB proto-oncogene like 2) | 0.302 | 1.95 | 0.19 | 0.392 | 0.567 |
| LINC00472 (long independently transcribed non-coding RNA 472) | -0.303 | 2.4 | -0.154 | -0.324 | -0.3 |
| HDC (histidine decarboxylase) | 0.281 | 2.2 | 0.18 | 0.155 | 0.306 |
| CGREF1 (cell growth regulator with EF-hand domain 1) | 0.254 | 1.43 | 0.00841 | 0.627 | 0.0941 |
| IL18BP (interleukin 18 binding protein) | 0.119 | 1.41 | 0.0836 | 0.414 | 0.0333 |
| DMAP1 (DNA methyltransferase 1 associated protein 1) | -0.0535 | 5.88 | -0.017 | -0.196 | -0.0958 |
| SLC25A13 | 0.552 | 2.78 | 0.491 | 0.423 | 0.64 |
| DPYS (dihydropyrimidinase) | 0.523 | 3.51 | 0.194 | 0.767 | 0.649 |
| ITGA6 (integrin subunit alpha 6) | -0.745 | 2.34 | -0.784 | -0.735 | -0.677 |
| SMG6 (SMG6 nonsense mediated mRNA decay factor) | -0.418 | 1.88 | -0.509 | -0.241 | -0.377 |
| HNRNPAB (heterogeneous nuclear ribonucleoprotein A/B) | -0.196 | 1.45 | -0.295 | -0.28 | -0.185 |
| ARFGEF2 (ARF guanine nucleotide exchange factor 2) | -0.13 | 2.71 | -0.12 | -0.0135 | -0.199 |
| POU4F1 (POU class 4 homeobox 1) | -0.0563 | 2.03 | 0.0237 | 0.324 | -0.0134 |
| DYDC2 (DPY30 domain containing 2) | -0.0455 | 2.63 | -0.322 | 0.0904 | 0.17 |
| SELENOS (selenoprotein S) | -0.339 | 1.76 | -0.076 | -0.759 | -0.0598 |
| AGO1 (argonaute RISC component 1) | 0.632 | 3.13 | 0.467 | 0.533 | 0.41 |
| IFNA7 (interferon alpha 7) | 0.0138 | 1.35 | 0.0509 | -0.21 | 0.143 |
| ABHD12 (abhydrolase domain containing 12, lysophospholipase) | 0.105 | 2.1 | 0.273 | 0.0243 | 0.0431 |
| DDX46 (DEAD-box helicase 46) | 0.18 | 2.3 | 0.497 | 0.115 | -0.122 |
| FCN2 (ficolin 2) | 0.155 | 2.05 | 0.242 | 0.13 | 0.25 |
| TMEM177 (transmembrane protein 177) | 0.624 | 1.3 | 0.356 | 0.671 | 0.566 |
| DNAI2 (dynein axonemal intermediate chain 2) | -0.439 | 2.11 | -0.46 | -0.596 | -0.482 |
| ARAF (A-Raf proto-oncogene, serine/threonine kinase) | 0.316 | 2.19 | 0.376 | 0.108 | 0.254 |
| TMEM237 (transmembrane protein 237) | -0.144 | 2.06 | -0.246 | 0.0101 | -0.246 |
| HAPLN1 (hyaluronan and proteoglycan link protein 1) | 0.131 | 2.6 | -0.228 | 0.345 | 0.257 |
| ACAD11 (acyl-CoA dehydrogenase family member 11) | 0.803 | 0.861 | 0.698 | 0.72 | 0.927 |
| SLC20A2 | 0.521 | 0.833 | 0.322 | 0.472 | 0.629 |
| DYNLT3 (dynein light chain Tctex-type 3) | -0.577 | 2.47 | -0.426 | -0.711 | -0.377 |
| COL18A1 (collagen type XVIII alpha 1 chain) | -0.176 | 1.75 | -0.0358 | -0.258 | -0.139 |
| LRP6 (LDL receptor related protein 6) | -0.324 | 1.81 | -0.194 | -0.169 | -0.487 |
| SCYL1 (SCY1 like pseudokinase 1) | 0.169 | 3.31 | 0.485 | 0.294 | -0.273 |
| HSD17B11 (hydroxysteroid 17-beta dehydrogenase 11) | 0.696 | 5.77 | 0.504 | 0.557 | 0.902 |
| CDC20 (cell division cycle 20) | -0.6 | 3.09 | -0.592 | -0.596 | -0.649 |
| POLR3C (RNA polymerase III subunit C) | -0.394 | 1.78 | -0.252 | -0.417 | -0.484 |
| RBM11 (RNA binding motif protein 11) | 0.54 | 2.33 | 0.499 | 0.453 | 0.483 |
| DBNDD1 (dysbindin domain containing 1) | 0.0658 | 2.22 | 0.0581 | -0.126 | 0.0135 |
| HTR3C (5-hydroxytryptamine receptor 3C) | 0.346 | 1.33 | 0.374 | 0.359 | 0.255 |
| TOMM40 (translocase of outer mitochondrial membrane 40) | -0.737 | 1.89 | -0.472 | -0.766 | -0.174 |
| UBQLN3 (ubiquilin 3) | -0.209 | 2.69 | -0.174 | -0.378 | -0.0452 |
| HMGN1 (high mobility group nucleosome binding domain 1) | 0.0798 | 1.89 | -0.0538 | -0.024 | 0.179 |
| PSME3 (proteasome activator subunit 3) | -0.0572 | 2.39 | -0.119 | -0.0515 | 0.0367 |
| TEX14 (testis expressed 14, intercellular bridge forming factor) | 0.525 | 1.69 | 0.614 | 0.687 | 0.243 |
| UBE2K (ubiquitin conjugating enzyme E2 K) | 0.58 | 1.24 | 0.62 | 0.503 | 0.674 |
| ZNF576 (zinc finger protein 576) | 0.508 | 1.89 | 0.517 | 0.498 | 0.569 |
| KCNN2 (potassium calcium-activated channel subfamily N member 2) | -0.0897 | 1.37 | -0.399 | 0.485 | 0.0536 |
| ZKSCAN5 (zinc finger with KRAB and SCAN domains 5) | -0.564 | 2.6 | -0.477 | -0.284 | -0.708 |
| ANKS1B (ankyrin repeat and sterile alpha motif domain containing 1B) | -0.859 | 2.89 | -0.842 | -0.713 | -0.749 |
| ECM1 (extracellular matrix protein 1) | -0.732 | 2.1 | -0.567 | -0.385 | -0.816 |
| KLK6 (kallikrein related peptidase 6) | -0.126 | 3.54 | -0.0835 | 0.21 | -0.19 |
| ZNF586 (zinc finger protein 586) | 0.0615 | 3.76 | 0.0768 | 0.0191 | 0.142 |
| PRSS22 (serine protease 22) | -0.234 | 1.6 | 0.125 | -0.566 | -0.312 |
| TRAF4 (TNF receptor associated factor 4) | 0.176 | 1.14 | -0.0891 | -0.0426 | 0.348 |
| RIOK3 (RIO kinase 3) | 0.854 | 2.08 | 0.885 | 0.779 | 0.8 |
| SUGT1P4-STRA6LP-CCDC180 (SUGT1P4-STRA6LP-CCDC180 readthrough) | -0.588 | 1.44 | -0.336 | -0.943 | -0.462 |
| SYNGR1 (synaptogyrin 1) | -0.666 | 1.53 | -0.836 | -0.415 | -0.616 |
| C4A (complement C4A (Chido/Rodgers blood group)) | 0.136 | 2.5 | 0.149 | 0.147 | 0.15 |
| ABTB1 (ankyrin repeat and BTB domain containing 1) | 0.65 | 1.97 | 0.662 | 0.734 | 0.554 |
| H2BC21 (H2B clustered histone 21) | 0.0263 | 3.44 | 0.148 | 0.108 | 0.07 |
| PCGF3 (polycomb group ring finger 3) | 0.462 | 1.23 | 0.331 | 0.447 | 0.455 |

10 of these entries in another layout:
target gene,mean correlation with KSR1 profile,mean distance from KSR1 profile,"KSR1 correlation, replicate 1","KSR1 correlation, replicate 2","KSR1 correlation, replicate 3"
SCYL1 (SCY1 like pseudokinase 1),0.169,3.31,0.485,0.294,-0.273
HSD17B11 (hydroxysteroid 17-beta dehydrogenase 11),0.696,5.77,0.504,0.557,0.902
CDC20 (cell division cycle 20),-0.6,3.09,-0.592,-0.596,-0.649
POLR3C (RNA polymerase III subunit C),-0.394,1.78,-0.252,-0.417,-0.484
RBM11 (RNA binding motif protein 11),0.54,2.33,0.499,0.453,0.483
DBNDD1 (dysbindin domain containing 1),0.0658,2.22,0.0581,-0.126,0.0135
HTR3C (5-hydroxytryptamine receptor 3C),0.346,1.33,0.374,0.359,0.255
TOMM40 (translocase of outer mitochondrial membrane 40),-0.737,1.89,-0.472,-0.766,-0.174
UBQLN3 (ubiquilin 3),-0.209,2.69,-0.174,-0.378,-0.0452
HMGN1 (high mobility group nucleosome binding domain 1),0.0798,1.89,-0.0538,-0.024,0.179
